Measured values published in PMC11727070.
These are yes or no findings as the source states them, for the method shown.

The chains behind the UniProt entries cited, without tags or fusion partners. Where a name states a change or a piece, a line headed by the entry shows the natural chain unless it says otherwise. A line that says so, or that is headed by a name, gives the form on record, which may keep a tag or linker. Residues count along the entry.
UniProt O94817: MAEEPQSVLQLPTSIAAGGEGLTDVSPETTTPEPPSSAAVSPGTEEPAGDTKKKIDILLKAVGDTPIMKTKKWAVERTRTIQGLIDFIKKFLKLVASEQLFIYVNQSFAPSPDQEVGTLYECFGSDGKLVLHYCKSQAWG
UniProt Q9H1Y0: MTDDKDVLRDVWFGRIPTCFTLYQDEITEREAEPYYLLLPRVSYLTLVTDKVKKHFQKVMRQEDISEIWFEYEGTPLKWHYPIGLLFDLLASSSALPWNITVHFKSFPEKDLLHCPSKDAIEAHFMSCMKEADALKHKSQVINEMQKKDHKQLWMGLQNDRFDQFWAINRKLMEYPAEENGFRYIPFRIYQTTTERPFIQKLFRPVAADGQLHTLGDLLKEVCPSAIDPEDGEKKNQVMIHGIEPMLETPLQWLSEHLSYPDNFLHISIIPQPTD
SUMO-tagged WIPI3^Δ (human WIPI3 residues 8–344 without residues 264–281) (Q5MNZ6, form named): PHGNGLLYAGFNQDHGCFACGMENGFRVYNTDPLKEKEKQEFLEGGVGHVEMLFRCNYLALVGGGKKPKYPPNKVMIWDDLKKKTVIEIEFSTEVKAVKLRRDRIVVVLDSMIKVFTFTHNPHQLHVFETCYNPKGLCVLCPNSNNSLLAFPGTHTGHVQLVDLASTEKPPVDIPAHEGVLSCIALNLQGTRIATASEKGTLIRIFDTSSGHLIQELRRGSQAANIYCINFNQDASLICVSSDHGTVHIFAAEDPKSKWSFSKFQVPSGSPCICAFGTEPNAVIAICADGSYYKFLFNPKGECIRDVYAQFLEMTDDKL

Legend:
[1] = target: full-length human ATG12 (human) (UniProt O94817); test: SEC; purified proteins alone and mixed, Superdex 200 Increase 10/300 GL or Superdex 75 10/300 GL on an AKTA FPLC; mixture profile compared with the theoretical sum; fractions checked by SDS-PAGE; both purified
[2] = target: full-length human ATG5 (human) (UniProt Q9H1Y0); test: as above

## SUMO-tagged WIPI3^Δ (human WIPI3 residues 8–344 without residues 264–281) (from UniProt Q5MNZ6 8-344) (domain or fragment)
[1]
  binding: no binding
[2]
  binding: no binding
